Counter-ions that a name gives are not always drawn. The list shows a part of the results. The numbers are fractions of the control, whatever unit the source prints. Most entries show no effect beyond the scatter of the controls.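 A lentiviral reporter stably expressed in MIN6 mouse insulinoma beta cells uses Pdx1 and Ins1 promoters to drive separate nucleus-targeted fluorescent proteins; automated imaging with Hoechst nuclear stain counted cells. Possible hits were drugs shifting Ins1 promoter signal more than two median absolute deviations from DMSO controls, with Pdx1 activity roughly normal.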
Each compound was assayed on MIN6 (assay: % Pdx1+ Ins1+ (double-positive, mature) cells relative to DMSO control (fold of DMSO control); higher = more mature Ins1 promoter-active cells). Settings: 8.5 µM; 48 h; glucose 5 mM.

Structure (SMILES) | % Pdx1+ Ins1+
CNCCC(Oc1ccc(C(F)(F)F)cc1)c1ccccc1 (stereo unspecified) [Fluoxetine hydrochloride] | 0.847
Cc1nc2n(c(=O)c1CCN1CCC(c3noc4cc(F)ccc34)CC1)CCCC2 [Risperidone] | 0.785
OCc1cc(C(O)CNCCCCCCOCCCCc2ccccc2)ccc1O (stereo unspecified) [Salmeterol] | 0.988
CC(=O)[C@H]1CC[C@H]2[C@@H]3C[C@H](C)C4=CC(=O)CC[C@]4(C)[C@H]3[C@@H](O)C[C@]12C [Medrysone] | 0.947
CCCCNC(=O)NS(=O)(=O)c1ccc(C)cc1 [Tolbutamide] | 1.02
O=C(O)c1cc(-c2ccc(F)cc2F)ccc1O [Diflunisal] | 1.01
Cn1c(-c2ccc3c(c2)OCO3)cc(=O)c2ccccc21 [Graveoline] | 0.93
CCn1cc(C(=O)O)c(=O)c2cnc(N3CCCC3)nc21 [Piromidic acid] | 1.08
COc1ccc2cc([C@@H](C)C(=O)O)ccc2c1 [(R) -Naproxen sodium salt] | 0.885
Nc1nc(=O)c2c([nH]1)NC[C@@H](CNc1ccc(C(=O)N[C@@H](CCC(=O)O)C(=O)O)cc1)N2C=O [Folinic acid calcium salt] | 0.825
CC(C)NCC(O)COc1cccc2ccccc12 (stereo unspecified) [Propranolol hydrochloride] | 1.02
CCCCC(CC)CNC(=N)NC(=N)NCCCCCCNC(=N)NC(=N)NCC(CC)CCCC (stereo unspecified) [Alexidine dihydrochloride] | 0
COC(=O)[C@@H]1[C@H]2C[C@H]3c4[nH]c5ccccc5c4CCN3C[C@@H]2CC[C@@H]1O [Yohimbine hydrochloride] | 0.783
CC1(C)NC(=O)N(c2ccc([N+](=O)[O-])c(C(F)(F)F)c2)C1=O [Nilutamide] | 0.863
CCC1=C(C)CN(C(=O)NCCc2ccc(S(=O)(=O)NC(=O)N[C@H]3CC[C@H](C)CC3)cc2)C1=O [Glimepiride] | 1.02
CCS(=O)(=O)CCn1c([N+](=O)[O-])cnc1C [Tinidazole] | 0.929
CCCCOc1cc(C(=O)NCCN(CC)CC)c2ccccc2n1 [Dibucaine] | 1.15
COc1ccc2cc1Oc1ccc(cc1)C[C@H]1c3cc(c(OC)cc3CCN1C)Oc1c(OC)c(OC)cc3c1[C@H](C2)N(C)CC3 [Tetrandrine] | 0.254

Structure (SMILES) | % Pdx1+ Ins1+
C[C@]12CC[C@@H]3c4ccc(O)cc4CC[C@H]3[C@@H]1CCC2=O [Estrone] | 0.994
CN(C)[C@@H]1C(O)=C(C(N)=O)C(=O)[C@@]2(O)C(O)=C3C(=O)c4c(O)ccc(Cl)c4[C@@](C)(O)[C@H]3C[C@@H]12 [Chlortetracycline hydrochloride] | 0.992
CC(=O)N(CC(C)C(=O)O)c1c(I)cc(I)c(N)c1I (stereo unspecified) [Iocetamic acid] | 0.859
CNCCC(Oc1ccccc1OC)c1ccccc1 (stereo unspecified) [Nisoxetine hydrochloride] | 0.872
O=C(O)CCC(=O)Nc1ccc(S(=O)(=O)Nc2nccs2)cc1 [Succinylsulfathiazole] | 0.853
COc1cnc(NS(=O)(=O)c2ccc(N)cc2)nc1 [Sulfameter] | 0.977
Cc1cccc(CN2CCN(C(c3ccccc3)c3ccc(Cl)cc3)CC2)c1 (stereo unspecified) [Meclozine dihydrochloride] | 0.857
CCOC(=O)C1=C[C@]2(CC)CCCN3CCc4c(n1c1ccccc41)[C@@H]32 [Vinpocetine] | 1.06
C=C1C[C@]23C[C@@]1(O)CC[C@H]2[C@@]12C=C[C@H](O)[C@@](C)(C(=O)O1)[C@H]2[C@@H]3C(=O)O [Gibberellic acid] | 0.967
c1ccc2[nH]c(-c3cscn3)nc2c1 [Tiabendazole] | 1
CN1[C@@H](CC(=O)c2ccccc2)CCC[C@H]1C[C@H](O)c1ccccc1 [Lobeline alpha (-) hydrochoride] | 0.907
CC1CS(=O)(=O)CCN1/N=C/c1ccc([N+](=O)[O-])o1 (stereo unspecified) [Nifurtimox] | 1.06
CO/N=C(\C(=O)N[C@@H]1C(=O)N2C(C(=O)O)=C(C[N+]3(C)CCCC3)CS[C@H]12)c1csc(N)n1 [Cefepime hydrochloride] | 0.81
CCOC(=O)[C@H](CCc1ccccc1)N[C@@H](C)C(=O)N1CCC[C@H]1C(=O)O [Enalapril maleate] | 1.02
CC1=C(CC(=O)O)c2cc(F)ccc2/C1=C\c1ccc([S+](C)[O-])cc1 (stereo unspecified) [Sulindac] | 1.17
CCc1cccc2c3c([nH]c12)C(CC)(CC(=O)O)OCC3 (stereo unspecified) [Etodolac] | 1.1
Cc1noc(NS(=O)(=O)c2ccc(N)cc2)c1C [Sulfisoxazole] | 0.972
CC[N+](CC)(CC)CCC(O)(c1ccccc1)C1CCCCC1 (stereo unspecified) [Tridihexethyl chloride] | 0.858

An excerpt from above in order of count of non-hydrogen atoms, falling.
Structure (SMILES) | % Pdx1+ Ins1+
COc1ccc2cc1Oc1ccc(cc1)C[C@H]1c3cc(c(OC)cc3CCN1C)Oc1c(OC)c(OC)cc3c1[C@H](C2)N(C)CC3 [Tetrandrine] | 0.254
CCCCC(CC)CNC(=N)NC(=N)NCCCCCCNC(=N)NC(=N)NCC(CC)CCCC (stereo unspecified) [Alexidine dihydrochloride] | 0
OCc1cc(C(O)CNCCCCCCOCCCCc2ccccc2)ccc1O (stereo unspecified) [Salmeterol] | 0.988
CCCCOc1cc(C(=O)NCCN(CC)CC)c2ccccc2n1 [Dibucaine] | 1.15
CC[N+](CC)(CC)CCC(O)(c1ccccc1)C1CCCCC1 (stereo unspecified) [Tridihexethyl chloride] | 0.858
CCn1cc(C(=O)O)c(=O)c2cnc(N3CCCC3)nc21 [Piromidic acid] | 1.08
COc1cnc(NS(=O)(=O)c2ccc(N)cc2)nc1 [Sulfameter] | 0.977

Source: the supplement of paper PMC4807443
